PubChem BioAssay AID743454 | Peter MacCallum Cancer Centre – 2014
This is a random part of about 18,000 reagents tested. Over the whole deposit, 450 (2.5%) were called active. 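Single biological run; no consistent viability z cut-off exists, so the class columns, not z-scores, define the calls.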

- Assay: 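Genes whose loss kills vorinostat-resistant colon cancer cells under vorinostat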 (primary screen)
- Cells: human HCT116-VR colon cancer cells, selected for vorinostat resistance
- Reagent: siRNA pool against human genes, 40 nM siRNA pool
- Timing: vorinostat for 24 h, read-out about 72 h after transfection
- Challenge: vorinostat at 2.5 µM final
- Detection: 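Two measures, CellTiter-Fluor viability and luminescent caspase 3/7 activity, each as fold change against same-plate mock wells, mean of duplicates, then screen-wide robust z-score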
- Scale: viability robust z-score: higher = more viable cells than screen typical; caspase robust z-score: higher = more caspase 3/7 activity than screen typical
- Call rule: 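Hits are knock-downs in viability class RV1/RV2 or caspase class CA1/CA2, excluding ones that killed cells in the no-drug cell-count arm; hits then retested with single siRNAs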

no.	Target gene	viability hit class	caspase hit class	viability robust z-score	caspase robust z-score	Outcome
1	USP48	no change	no change	0.49	1.4	inactive
2	CAPNS1	no change	no change	-0.28	0.6	inactive
3	TAF5	no change	no change	-1.82	0.12	inactive
4	CRACR2A	no change	no change	-0.08	1.01	inactive
5	LHX1	no change	no change	0.84	1.39	inactive
6	SPPL3	no change	no change	-0.13	4.78	inactive
7	OR51A2	no change	no change	-2.04	-1.19	inactive
8	CDY1	no change	no change	-2.23	2.73	inactive
9	NR1I3	no change	no change	0.2	-0.36	inactive

Part of the list above, showing only “caspase hit class”:
TAF5 = no change
CRACR2A = no change
LHX1 = no change

The list goes on:
no.	Target gene	viability hit class	caspase hit class	viability robust z-score	caspase robust z-score	Outcome
10	ZBTB4	no change	no change	0.12	0.38	inactive
11	SQLE	no change	no change	0.24	-0.2	inactive
12	DPP6	no change	no change	1.16	-0.74	inactive
13	ATP10D	no change	no change	-1.26	-1.03	inactive
14	SOX10	no change	no change	0.38	0.22	inactive
15	RBX1	no change	no change	-1.53	1.93	inactive
16	HEMK1	no change	no change	-0.14	-0.34	inactive
17	ZNF267	no change	no change	0.98	0.88	inactive
18	NR4A3	no change	no change	0.26	-0.32	inactive
19	SLC25A44	no change	no change	-1.36	-0.71	inactive
20	THNSL2	no change	no change	-1.36	0.04	inactive
21	PIGK	no change	no change	-0.9	0.62	inactive
22	KIF18A	no change	no change	-0.72	2.44	inactive
23	PPP2R5E	no change	no change	0.13	0.78	inactive
